Data: PubChem BioAssay AID1794844 (National Center for Advancing Translational Sciences (NCATS), 2023)
In all, about 2,800 compounds went through this assay and fewer than 10 were called active. About 7% were inconclusive and are not listed. Calls come from the whole dose curve; as a rule, active = well fitted inhibition curve with a large enough effect; inconclusive = small, poorly fitted or top-dose-only effect; inactive = no such curve, though single readings can be large or run the other way. Some of the results follow.

The chains behind the UniProt entries cited, without tags or fusion partners. Where a name states a change or a piece, a line headed by the entry shows the natural chain unless it says otherwise.
UniProt C7C422: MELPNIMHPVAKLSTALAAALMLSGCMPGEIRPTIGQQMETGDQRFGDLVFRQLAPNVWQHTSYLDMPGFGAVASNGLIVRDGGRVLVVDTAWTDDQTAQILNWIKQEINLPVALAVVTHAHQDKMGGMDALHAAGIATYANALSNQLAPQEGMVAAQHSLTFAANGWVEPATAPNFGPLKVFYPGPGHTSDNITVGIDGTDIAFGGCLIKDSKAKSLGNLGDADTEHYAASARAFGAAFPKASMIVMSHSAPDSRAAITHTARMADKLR

Each molecule was assayed against Metallo-beta-lactamase type 2 (Klebsiella pneumoniae) (UniProt C7C422) (assay: qHTS to identify inhibitors of the New Delhi Metallo-beta-lactamase (NDM): Nitrocefin screen against the machine-based learning selections.). Conditions: NDM-1 enzyme, nitrocefin hydrolysis, absorbance 485 nm; activity, negative = inhibition: at the top concentration.
How it was run: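 NDM-1 (2 nM final) in 50 mM HEPES pH 7.0, 1 uM Zn2SO4, 0.01% Tween20 was preincubated with compounds for >30 min. Nitrocefin (16.7 uM final) was read at 485 nm after 15 min, and meropenem (50 uM final) at 300 nm after 30 min.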
Note: % of control where 0% means no effect.

SMILES	activity, negative = inhibition
O=C(Nc1ccsc1)N[C@H]1C[C@H]2C(=O)NC[C@@H](CCC(=O)N3CCCCC3)N2C1	inactive: -15.9% [at 57.5 µM]
COC(=O)[C@@H]1Cc2nc[nH]c2CN1C(C)C	inactive: -11.1% [at 76.7 µM]
OC(CCc1ccccc1)C1CCN(Cc2nc(-c3ccccn3)no2)CC1 (configuration not stated)	inactive: -11.1%
O=C(NCCc1cnc[nH]1)C1CCN(C2CCCCC2)CC1	inactive: -9.13%
CCOC(=O)c1ccc(N2C(=O)[C@@H]3Cc4nc[nH]c4CN3C2=O)cc1	inactive: 3.45% [at 57.5 µM]
Cc1cc(CN2CCC(CO)(Cc3ccccc3Cl)CC2)cc(C)c1O	inactive: -0.358%
COc1ccc(C(=O)NCc2nnc3ccc(-c4ccccc4)nn23)c(OC)n1	inactive: 9.23%
O=C(CN1CC2CC(C1)[C@H]1CCCC(=O)N1C2)Nc1ccccc1 (some centres not stated)	inactive: -0.533%
O=C(c1ccccc1)N1C[C@@H]2OCC(=O)N(c3ccccc3)[C@@H]2C1	inactive: -4.96% [at 57.5 µM]
O=C1Nc2ccc(-c3cccc(C(F)(F)F)c3)cc2C(=O)N2CCN(C(=O)[C@@H]3CSCN3)C[C@H]12	inactive: -1.58%
O=[S+]([O-])(NCC1CN(Cc2ccc(O)cc2)CC12CN(c1ccccc1)C2)c1ccccc1 (configuration not stated)	inactive: 2.73%
CC(=O)N1CCN(C(=O)C[C@@H]2C[C@@H](C(C)C)[C@H](CNC(=O)Nc3cccc(F)c3)C=C2C)CC1	inactive: -1.02%
O=C(NC1CCCCC1)N[C@H]1CO[C@H]2[C@@H]1OC[C@@H]2n1cc(-c2ccccc2)nn1	inactive: 2.09% [at 57.5 µM]
Oc1ccccc1CN1CCNc2cnc(-c3ccccc3)cc2C1	inactive: -1.68% [at 57.5 µM]
CC(=O)Nc1cccc(-c2ccc3ncn(-c4cccnc4)c(=O)c3n2)c1	inactive: 2.6% [at 57.5 µM]
CC(C)c1ccc(C(=O)N2CCCC[C@H](N(C)C)C2)c(=O)n1C	inactive: -5.46%
Cn1ccnc1CN[C@@H]1C[C@H](CO)[C@@H](O)[C@H]1O	inactive: -2.53% [at 76.7 µM]
CC[C@H]1CN(C(=O)C(C)(C)C)CC[C@H]1CC(=O)NCCSC	inactive: 1.16% [at 57.5 µM]
COc1ccc(C(=O)N[C@H]2C[C@H]3C(=O)Nc4ccccc4C(=O)N3C2)cc1	inactive: 2.8% [at 57.5 µM]
O=C(Cc1ccncc1)N1CCC2(CC1)NCCc1c2[nH]c2ccccc12	inactive: -1.63%
CN(Cc1ccccc1)Cc1cn([C@H]2CO[C@H]3[C@@H]2OC[C@@H]3NC(=O)NCc2ccccc2)nn1	inactive: -6.32%
CC1=C[C@@H](CNC(=O)Cc2ccccc2)[C@H](C(C)C)C[C@H]1Cc1nc2ccncc2[nH]1	inactive: 18% [at 57.5 µM]
CCC[C@H]1C[C@H]1C(=O)N1CCC2(CCC(=O)N(CC(N)=O)C2)CC1	inactive: 2.24%

In a second layout: results already given.

| SMILES | activity, negative = inhibition |
| --- | --- |
| Cc1cc(CN2CCC(CO)(Cc3ccccc3Cl)CC2)cc(C)c1O | inactive: -0.358% |
| O=C(NC1CCCCC1)N[C@H]1CO[C@H]2[C@@H]1OC[C@@H]2n1cc(-c2ccccc2)nn1 | inactive: 2.09% [at 57.5 µM] |
| CN(Cc1ccccc1)Cc1cn([C@H]2CO[C@H]3[C@@H]2OC[C@@H]3NC(=O)NCc2ccccc2)nn1 | inactive: -6.32% |
| CC1=C[C@@H](CNC(=O)Cc2ccccc2)[C@H](C(C)C)C[C@H]1Cc1nc2ccncc2[nH]1 | inactive: 18% [at 57.5 µM] |

The list continues.

SMILES	activity, negative = inhibition
CCc1cc(N2CCOC(c3ccc4cc(OC)ccc4c3)C2)nc(C)n1 (configuration not stated)	inactive: -9.13%
CN(Cc1cc(C[C@@H]2C[C@H](NC(=O)COc3ccccc3)C2(C)C)no1)c1ccccc1	inactive: -1.77% [at 57.5 µM]
CCCC1=Nc2cc(C(=O)NCCc3ccc(OC)c(OC)c3)ccc2Sc2ccccc21	inactive: 3.35%
CN(C)c1ccc(NC(=S)N[C@H]2CO[C@H]3[C@@H]2OC[C@H]3OC(=O)Nc2cccc3ccccc23)cc1	inactive: 5.22%
Cc1noc2c(-c3cccc(CO)c3)cc(-c3ccc(F)cc3)nc12	inactive: 296% [at 57.5 µM]
CCOCc1nc(C2CCCN(C(=O)c3ccc(C)cc3)C2)no1 (configuration not stated)	inactive: 2.9%
C=CCN(Cc1cnc(-c2cccc(C)c2)nc1)Cc1ccccn1	inactive: -4.13%
CC(C)C1c2nccn2CCCN1C(=O)c1ccc(Cn2cncn2)o1 (configuration not stated)	inactive: -2.21%
Cc1ccc2[nH]c(CCCn3cc(-c4nccn4C)nn3)nc2c1C	inactive: -10.3%
Cc1ccc(S(=O)(=O)Cc2noc([C@@H]3C[C@@H](O)CN3Cc3ccc(S(C)(=O)=O)cc3)n2)cc1	inactive: 1.37%
CNS(=O)(=O)c1ccc(C2CC(=O)Nc3cc(O)c(OC)cc32)cc1 (configuration not stated)	inactive: -2.45%
Cc1ccc2c(C)c(C(=O)N3CC(OCc4ccccc4F)C3)oc2c1	inactive: 3.3%
O=C1Nc2ccccc2CC12CCN(Cc1cccnc1)CC2	inactive: 2.71% [at 57.5 µM]
CC(=O)N[C@@H]1C[C@H](Cc2ccccc2)O[C@H](c2c(C)nc3sccn23)C1	inactive: 8.09%
CC(C(=O)N1CCCC1)N1CCC2(CCC(=O)N(CCO)C2)CC1 (configuration not stated)	inactive: -9%
COc1ccc(CN2C(=O)COC[C@@H]2[C@H](O)c2ccc(NC(=O)CC(C)(C)C)cc2)cc1	inactive: -1.63%
CCN1C(=O)CCc2cc(NC(=O)c3ccc(C(C)C)cc3)ccc21	inactive: -0.776%
NC(=O)c1nc(CNC(=O)CC(c2ccccc2)c2cccc(Cl)c2)no1 (configuration not stated)	inactive: 8.35%
OCc1ccc(CN2C[C@H](O)C[C@H]2c2nc(-c3ccc(F)cc3)no2)o1	inactive: -19.1% [at 57.5 µM]
COc1ccc(NC(=O)N[C@H]2CO[C@H]3[C@@H]2OC[C@@H]3n2nnnc2-c2ccc3c(c2)OCO3)cc1	inactive: -0.56%
COc1cccc(NC(=O)CCc2ccc3c(c2)CN(S(C)(=O)=O)CCO3)c1	inactive: -4.72%
COC[C@H]1C[C@@H](NC(=O)c2cc(C(C)(C)C)oc2C)[C@H](O)[C@@H]1O	inactive: -10.4% [at 57.5 µM]
Cc1ncsc1C(=O)N1CCCC(c2ccc(C(=O)O)cc2)C1 (configuration not stated)	inactive: -5.21%

SMILES	activity, negative = inhibition
NC(=O)CN1CCC2(CC1)CCN(C(=O)Cc1cnc[nH]1)CC2CO (configuration not stated)	inactive: 0.625%
O=C(COc1ccccc1)N[C@H]1CO[C@H]2[C@@H]1OC[C@@H]2n1nnnc1Oc1ccc2c(c1)OCO2	inactive: -1.96%
O=C(O)c1ccnc(-c2ccnc(NCCCN3CCCC(O)C3)n2)c1 (configuration not stated)	inactive: -7.43%
OCC#Cc1ccc(CN2CCC3(CCNCC3)C2)cc1	inactive: -12.7%
COc1ccc(-c2cn3c(n2)CO[C@@H](CNCc2ccc(Cl)cc2)C3)cc1	inactive: 0.106% [at 57.5 µM]
COc1ccc(-c2cnc3[nH]cc(CC(=O)Nc4ccncc4)c3c2)cc1	inactive: 42.4% [at 57.5 µM]
O=C(NCc1ccccc1)O[C@H]1COCCN(c2nc3ccccc3o2)C1	inactive: -7.44% [at 57.5 µM]
O=C(COc1ccccc1Cl)N1CCCC(O)(CN2CCCC2)C1 (configuration not stated)	inactive: 0.384%
O=C(Cn1nccn1)NC1CC(c2cc(N3CCC(O)C3)ncn2)C1 (configuration not stated)	inactive: -4.11%
O=C1CCCCC(CNC(=O)c2cc(F)ccc2F)N1 (configuration not stated)	inactive: 5.23%
CC(=O)N[C@H]1CC[C@]2(C)CC[C@@H](C(C)C(=O)NC3CCCC3)[C@H](O)[C@H]2[C@@H]1C (some centres not stated)	inactive: -8.9% [at 57.5 µM]
CCCCNC(=O)c1cccc(CN2C(=O)CC(c3ccccc3C)C(C(=O)OCC)=C2C)c1 (configuration not stated)	inactive: 5.52%
CCCN1C(=O)Cc2ccccc2C1C(=O)NCc1cccc(C)c1 (configuration not stated)	inactive: 2.07%
COc1ccc(CN2C(=O)[C@@H]3C[C@@H](O)CN3C3(CN(C4CCC4)C3)C2=O)cc1	inactive: 14.3% [at 57.5 µM]
COc1ccc(C(=O)N[C@H]2CO[C@H]3[C@@H]2OC[C@@H]3n2cc(CN(C)Cc3ccccc3)nn2)cc1	inactive: -0.996%
CC1(C(=O)NCCCn2ccnc2)CCCc2cnc(Nc3ccccc3)nc21 (configuration not stated)	inactive: -5.13% [at 57.5 µM]
NC(=O)[C@H](Cc1ccc(O)cc1)NC(=O)C1=C[C@@H](NC(=O)Nc2ccc(OC(F)(F)F)cc2)[C@@H](O)[C@H](O)C1	inactive: 3.87%
CN1C[C@@H](NS(=O)(=O)c2ccc(Cl)cc2)C[C@H]1c1nc(-c2ccc(F)cc2)no1	inactive: -10.1%
CC(C)(C)c1ccc(C(=O)Nc2nc3c(s2)C[C@@H]2[C@](C)(CO)[C@H](O)CC[C@@]2(C)[C@@H]3CC(=O)NC2CC2)cc1	inactive: -10.8%
O=C1Cc2c(-c3cccc4ccccc34)n[nH]c2CN1CCc1ccncc1	inactive: 0.804% [at 57.5 µM]
CC(=O)NC[C@@H]1C=C(C)[C@H](CC(=O)N2CCCC2)C[C@H]1C(C)C	inactive: 1.44% [at 57.5 µM]
COc1ccc(CN(Cc2ccc(OC)cc2)[C@@H]2CO[C@H](CNC(=O)CC(C)(C)C)[C@H]2O)cc1	inactive: 1.54%
CC1(C)C[C@H](NC(=O)c2ccccc2)[C@@]2(CCC(=O)NCc3cccnc3)CC[C@](C)(O)C[C@@H]12	inactive: -5.46%

SMILES	activity, negative = inhibition
CCC(NC(=O)c1cc(Cn2ccc3ccccc32)[nH]n1)c1ncccc1C (configuration not stated)	inactive: -0.46%
O=C([C@H]1C[C@@H](O)[C@H](O)[C@@H]2N=C(Nc3ccc(Cl)cc3)S[C@@H]21)N1CCOCC1	inactive: -0.866% [at 57.5 µM]
CC(C)(O)C#Cc1ccc(C(=O)N2CCC(O)(c3ccccn3)CC2)cc1	inactive: -4.87%
CN1C[C@H](C(=O)NCc2ccccc2)C[C@H]1c1cccc(C(F)(F)F)c1	inactive: 7.22% [at 57.5 µM]
COc1cc(CNC(=O)CCC2CCN(S(=O)(=O)c3ccccc3)CC2)cc(OC)c1	inactive: -10.9%
COCCNc1ncccc1-c1cc(-c2ccccc2)nc2c(C)noc12	inactive: 2.72% [at 57.5 µM]
CCCOc1cc(C)c2c(c1C)C[C@H]([C@H](C)C(=O)NCCOC)CC2	inactive: -7.25% [at 57.5 µM]
COc1ccccc1-c1ccnc(N[C@H]2CO[C@H]3[C@@H]2OC[C@@H]3NS(=O)(=O)c2ccc3ccccc3c2)n1	inactive: 231%
COc1ccc(CN2C(=O)[C@@H]3C[C@@H](CN3CC3CC3)Oc3ccccc32)cc1	inactive: -2.91% [at 57.5 µM]
COCCN[C@@H]1C[C@@H]2c3[nH]c4ccccc4c3C[C@@H](C(=O)OC)N2[C@H](c2ccc(C(C)C)cc2)C1	inactive: 1.56%
CC(C)CCNC1(Cc2cc(CN3CCOCC3)on2)COC1	inactive: 15.9% [at 57.5 µM]
COc1ccc(C(=O)N2CCc3nc(N)nc(N4CCCC4)c3CC2)o1	inactive: -14%
CC1=C[C@@H](CN2CCN(c3cnccn3)CC2)[C@H](C(C)C)C[C@H]1Cc1nnc(-c2cccnc2)o1	inactive: -10.1%
CCOc1ccc(C(=O)NC2CCCN(c3cc(-c4ccc(OC)cc4)[nH]n3)C2)cc1OCC (configuration not stated)	inactive: 4.43%
N#Cc1cccc(CN2CCOC[C@H]2c2ncc(-c3ccc(C(F)(F)F)cc3)[nH]2)c1	inactive: 3.87% [at 57.5 µM]
Cn1ccnc1CN[C@@H]1CO[C@H](CNC(=O)CC(C)(C)C)[C@H]1O	inactive: -8.81% [at 57.5 µM]
COCCOC1CN(C2CCN(C(=O)c3ccc(OC)cc3)CC2)C12CCCCC2 (configuration not stated)	inactive: 4.3%
CN(c1ccccc1)c1ccc2nnc(-c3cc(C(=O)NC4CCC(O)CC4)ccn3)n2n1 (configuration not stated)	inactive: 0.149%
COc1ccccc1C(=O)Nc1ccc([C@H]2OCC(=O)N(Cc3cccnc3)[C@@H]2CO)cc1	inactive: 7.94%
CCOCC(=O)N1CCCC(c2cc(N3CCOCC3)nc(C)n2)C1 (configuration not stated)	inactive: 8.6%
O=C(Cc1c[nH]c2ncc(-c3cccc(Cl)c3)cc12)NCc1cccnc1	inactive: 7.39% [at 57.5 µM]
C[C@]1(O)CCN(C(=O)CCc2c[nH]c3ccccc23)C[C@@H]1O	inactive: -14.7%
CC(=O)N1CCCC(C(=O)NCCc2csc(-c3ccncc3)n2)C1 (configuration not stated)	inactive: 3.06%

Sorted by heavy-atom count (rising): part of the list above
SMILES	activity, negative = inhibition
CCOCC(=O)N1CCCC(c2cc(N3CCOCC3)nc(C)n2)C1 (configuration not stated)	inactive: 8.6%
COCCNc1ncccc1-c1cc(-c2ccccc2)nc2c(C)noc12	inactive: 2.72% [at 57.5 µM]
CCC(NC(=O)c1cc(Cn2ccc3ccccc32)[nH]n1)c1ncccc1C (configuration not stated)	inactive: -0.46%
